± gives the standard deviation of the averaged measurements. This is a selection; strong and weak results do not stand in their true shares.
Compound: Nc1ncnc2c1ncn2[C@@H]1O[C@H](COP(=O)(O)OP(=O)(O)OP(=O)(O)O)[C@@H](O)[C@H]1O [adenosine triphosphate]
Assay: NP40-soluble protein abundance relative to vehicle (solubility fold change) (ratio); higher = more soluble protein in presence of ATP
In short: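 Jurkat crude lysate prepared with a Dounce homogeniser was treated at eight concentrations spanning 0.1 to 10 mM, 10 min at room temperature then 3 min at 37 °C. Solubilisation with 0.8% NP40 and benzonase and ultracentrifugation preceded TMT labelling of the supernatant for LC-MS/MS. Fold change against the detergent-processed vehicle was determined per replicate from vsn-normalised intensities, across three independent experiments.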

By UniProt entry, the sequences of proteins in these tests, tags left out. Where a name states a change or a piece, a line headed by the entry shows the natural chain unless it says otherwise.
UniProt Q96CV9, whole entry: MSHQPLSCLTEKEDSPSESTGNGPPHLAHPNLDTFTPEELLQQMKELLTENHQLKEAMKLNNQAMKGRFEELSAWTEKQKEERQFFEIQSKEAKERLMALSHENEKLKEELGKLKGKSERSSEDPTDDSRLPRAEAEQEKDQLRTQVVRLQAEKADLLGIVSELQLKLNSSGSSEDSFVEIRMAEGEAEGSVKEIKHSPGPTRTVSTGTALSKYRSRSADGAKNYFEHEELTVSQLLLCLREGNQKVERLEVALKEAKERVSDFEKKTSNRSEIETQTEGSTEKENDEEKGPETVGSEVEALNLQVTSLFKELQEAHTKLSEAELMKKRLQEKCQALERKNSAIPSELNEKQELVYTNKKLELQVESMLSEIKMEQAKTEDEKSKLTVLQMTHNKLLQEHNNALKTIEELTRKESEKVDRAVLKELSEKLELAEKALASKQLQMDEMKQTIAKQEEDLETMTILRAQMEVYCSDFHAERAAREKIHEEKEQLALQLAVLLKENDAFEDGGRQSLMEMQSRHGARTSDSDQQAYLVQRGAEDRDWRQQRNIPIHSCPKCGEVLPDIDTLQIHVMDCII
UniProt Q96F63: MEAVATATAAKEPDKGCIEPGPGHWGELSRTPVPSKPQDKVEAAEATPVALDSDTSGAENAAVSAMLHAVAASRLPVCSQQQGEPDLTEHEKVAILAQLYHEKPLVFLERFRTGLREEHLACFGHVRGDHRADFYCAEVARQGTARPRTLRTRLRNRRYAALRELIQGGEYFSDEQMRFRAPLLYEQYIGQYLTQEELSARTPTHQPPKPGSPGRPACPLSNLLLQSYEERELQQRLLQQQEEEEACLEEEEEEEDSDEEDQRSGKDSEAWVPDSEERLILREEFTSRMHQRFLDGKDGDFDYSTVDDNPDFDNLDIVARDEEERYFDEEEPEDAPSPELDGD
UniProt Q96D71: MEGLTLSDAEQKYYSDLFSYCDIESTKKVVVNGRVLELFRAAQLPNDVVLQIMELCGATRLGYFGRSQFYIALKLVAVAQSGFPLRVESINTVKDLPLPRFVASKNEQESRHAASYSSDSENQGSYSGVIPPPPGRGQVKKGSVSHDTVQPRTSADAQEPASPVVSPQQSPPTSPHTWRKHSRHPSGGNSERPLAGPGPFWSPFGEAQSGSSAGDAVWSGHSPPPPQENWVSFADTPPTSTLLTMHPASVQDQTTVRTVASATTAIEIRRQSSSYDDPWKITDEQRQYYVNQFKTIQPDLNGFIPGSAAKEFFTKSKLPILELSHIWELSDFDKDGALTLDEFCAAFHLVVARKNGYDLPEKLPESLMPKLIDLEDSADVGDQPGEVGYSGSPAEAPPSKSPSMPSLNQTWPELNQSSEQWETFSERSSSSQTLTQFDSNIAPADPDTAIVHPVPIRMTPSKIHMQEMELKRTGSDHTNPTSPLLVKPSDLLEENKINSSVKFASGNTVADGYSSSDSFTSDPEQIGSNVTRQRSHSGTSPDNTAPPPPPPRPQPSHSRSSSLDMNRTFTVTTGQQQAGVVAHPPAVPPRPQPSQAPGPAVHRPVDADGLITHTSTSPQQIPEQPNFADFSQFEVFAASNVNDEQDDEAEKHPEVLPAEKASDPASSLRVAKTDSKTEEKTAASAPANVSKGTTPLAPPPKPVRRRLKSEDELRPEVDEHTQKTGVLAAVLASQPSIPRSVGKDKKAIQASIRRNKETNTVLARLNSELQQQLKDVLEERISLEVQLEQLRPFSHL
UniProt Q96DT7: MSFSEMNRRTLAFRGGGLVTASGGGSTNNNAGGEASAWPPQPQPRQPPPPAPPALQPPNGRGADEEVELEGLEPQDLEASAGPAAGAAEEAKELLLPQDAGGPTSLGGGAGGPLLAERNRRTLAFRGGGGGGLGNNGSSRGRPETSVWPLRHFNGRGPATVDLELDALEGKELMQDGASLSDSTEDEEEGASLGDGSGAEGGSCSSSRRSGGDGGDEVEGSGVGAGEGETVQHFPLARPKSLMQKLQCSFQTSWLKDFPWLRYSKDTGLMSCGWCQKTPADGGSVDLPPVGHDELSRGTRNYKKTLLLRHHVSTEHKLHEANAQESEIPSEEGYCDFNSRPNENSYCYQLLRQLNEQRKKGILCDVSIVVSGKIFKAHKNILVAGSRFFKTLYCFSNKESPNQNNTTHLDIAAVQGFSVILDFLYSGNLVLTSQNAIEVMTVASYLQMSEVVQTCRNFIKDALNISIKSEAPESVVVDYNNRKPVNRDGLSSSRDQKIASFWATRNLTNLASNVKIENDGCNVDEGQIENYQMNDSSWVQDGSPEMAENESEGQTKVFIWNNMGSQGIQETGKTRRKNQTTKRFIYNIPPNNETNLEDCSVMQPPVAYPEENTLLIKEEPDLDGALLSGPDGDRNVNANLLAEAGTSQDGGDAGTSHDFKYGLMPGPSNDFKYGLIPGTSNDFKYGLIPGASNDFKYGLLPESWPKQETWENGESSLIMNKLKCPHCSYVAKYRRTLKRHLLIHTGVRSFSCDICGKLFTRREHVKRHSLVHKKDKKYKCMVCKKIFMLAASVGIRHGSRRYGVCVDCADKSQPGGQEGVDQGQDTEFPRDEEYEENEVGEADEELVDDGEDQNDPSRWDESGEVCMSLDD
UniProt Q96C19: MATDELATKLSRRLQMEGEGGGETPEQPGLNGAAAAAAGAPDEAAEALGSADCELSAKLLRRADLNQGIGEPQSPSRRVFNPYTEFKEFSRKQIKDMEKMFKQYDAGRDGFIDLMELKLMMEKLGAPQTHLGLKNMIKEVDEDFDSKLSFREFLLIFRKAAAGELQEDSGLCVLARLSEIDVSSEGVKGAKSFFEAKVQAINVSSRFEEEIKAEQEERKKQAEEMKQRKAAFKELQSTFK
UniProt Q96HR8: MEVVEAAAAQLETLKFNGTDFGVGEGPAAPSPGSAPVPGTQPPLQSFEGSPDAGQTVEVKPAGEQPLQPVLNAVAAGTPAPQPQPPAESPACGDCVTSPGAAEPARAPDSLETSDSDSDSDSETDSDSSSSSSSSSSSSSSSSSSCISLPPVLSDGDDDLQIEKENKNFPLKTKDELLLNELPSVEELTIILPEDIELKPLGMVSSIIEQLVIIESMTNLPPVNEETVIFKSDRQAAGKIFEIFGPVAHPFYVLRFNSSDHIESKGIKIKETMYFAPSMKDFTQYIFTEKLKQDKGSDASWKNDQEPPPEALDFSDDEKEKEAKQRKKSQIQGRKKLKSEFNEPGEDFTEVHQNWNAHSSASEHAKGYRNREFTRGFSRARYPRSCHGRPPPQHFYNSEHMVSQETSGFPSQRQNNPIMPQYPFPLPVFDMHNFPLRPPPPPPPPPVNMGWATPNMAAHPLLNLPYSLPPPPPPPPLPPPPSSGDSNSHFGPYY
UniProt Q96NB2: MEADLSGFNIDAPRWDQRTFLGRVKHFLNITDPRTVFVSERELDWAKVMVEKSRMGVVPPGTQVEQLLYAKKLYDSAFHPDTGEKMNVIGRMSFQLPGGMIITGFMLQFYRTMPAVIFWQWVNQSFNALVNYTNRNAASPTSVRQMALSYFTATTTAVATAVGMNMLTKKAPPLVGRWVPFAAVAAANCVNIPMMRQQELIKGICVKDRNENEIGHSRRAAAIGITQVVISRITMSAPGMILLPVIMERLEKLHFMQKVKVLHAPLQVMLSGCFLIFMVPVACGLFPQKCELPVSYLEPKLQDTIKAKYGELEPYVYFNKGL
UniProt Q96RY7: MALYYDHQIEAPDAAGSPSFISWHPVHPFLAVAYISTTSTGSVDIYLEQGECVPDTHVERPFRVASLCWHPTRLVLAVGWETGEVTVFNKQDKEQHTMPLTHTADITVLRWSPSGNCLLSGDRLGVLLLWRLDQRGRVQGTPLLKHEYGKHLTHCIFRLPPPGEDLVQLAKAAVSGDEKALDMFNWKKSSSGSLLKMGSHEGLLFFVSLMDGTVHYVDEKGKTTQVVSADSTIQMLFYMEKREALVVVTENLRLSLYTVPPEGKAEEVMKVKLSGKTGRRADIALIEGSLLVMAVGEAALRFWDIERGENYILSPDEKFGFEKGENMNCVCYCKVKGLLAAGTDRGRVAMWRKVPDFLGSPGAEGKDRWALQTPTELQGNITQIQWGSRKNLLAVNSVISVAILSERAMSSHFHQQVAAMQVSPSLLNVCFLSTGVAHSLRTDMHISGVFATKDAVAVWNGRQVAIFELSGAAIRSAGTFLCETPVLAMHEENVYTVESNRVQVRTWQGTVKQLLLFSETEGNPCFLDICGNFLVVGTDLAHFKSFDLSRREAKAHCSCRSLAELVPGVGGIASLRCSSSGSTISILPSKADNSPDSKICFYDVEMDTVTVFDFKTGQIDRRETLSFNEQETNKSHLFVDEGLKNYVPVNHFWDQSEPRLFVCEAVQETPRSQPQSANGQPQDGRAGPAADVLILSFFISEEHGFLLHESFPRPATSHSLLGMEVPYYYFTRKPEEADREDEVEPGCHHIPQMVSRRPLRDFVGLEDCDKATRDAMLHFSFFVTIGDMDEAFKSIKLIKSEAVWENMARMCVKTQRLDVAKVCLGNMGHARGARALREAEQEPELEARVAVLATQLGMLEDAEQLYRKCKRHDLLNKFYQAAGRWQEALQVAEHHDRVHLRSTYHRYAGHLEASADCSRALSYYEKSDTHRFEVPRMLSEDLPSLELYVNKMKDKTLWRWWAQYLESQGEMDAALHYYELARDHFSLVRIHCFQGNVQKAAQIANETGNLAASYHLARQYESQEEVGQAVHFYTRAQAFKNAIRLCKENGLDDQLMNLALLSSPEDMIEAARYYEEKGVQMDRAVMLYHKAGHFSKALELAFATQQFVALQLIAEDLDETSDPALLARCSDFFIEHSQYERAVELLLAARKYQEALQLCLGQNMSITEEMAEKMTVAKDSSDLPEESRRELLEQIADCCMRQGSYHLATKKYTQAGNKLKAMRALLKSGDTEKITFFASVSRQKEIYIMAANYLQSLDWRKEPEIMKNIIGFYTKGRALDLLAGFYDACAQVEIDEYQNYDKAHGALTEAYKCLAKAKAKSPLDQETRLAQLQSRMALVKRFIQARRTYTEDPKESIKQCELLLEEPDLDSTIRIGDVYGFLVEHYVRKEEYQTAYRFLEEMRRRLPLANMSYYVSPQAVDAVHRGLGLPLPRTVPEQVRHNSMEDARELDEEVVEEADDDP
UniProt Q96KR1: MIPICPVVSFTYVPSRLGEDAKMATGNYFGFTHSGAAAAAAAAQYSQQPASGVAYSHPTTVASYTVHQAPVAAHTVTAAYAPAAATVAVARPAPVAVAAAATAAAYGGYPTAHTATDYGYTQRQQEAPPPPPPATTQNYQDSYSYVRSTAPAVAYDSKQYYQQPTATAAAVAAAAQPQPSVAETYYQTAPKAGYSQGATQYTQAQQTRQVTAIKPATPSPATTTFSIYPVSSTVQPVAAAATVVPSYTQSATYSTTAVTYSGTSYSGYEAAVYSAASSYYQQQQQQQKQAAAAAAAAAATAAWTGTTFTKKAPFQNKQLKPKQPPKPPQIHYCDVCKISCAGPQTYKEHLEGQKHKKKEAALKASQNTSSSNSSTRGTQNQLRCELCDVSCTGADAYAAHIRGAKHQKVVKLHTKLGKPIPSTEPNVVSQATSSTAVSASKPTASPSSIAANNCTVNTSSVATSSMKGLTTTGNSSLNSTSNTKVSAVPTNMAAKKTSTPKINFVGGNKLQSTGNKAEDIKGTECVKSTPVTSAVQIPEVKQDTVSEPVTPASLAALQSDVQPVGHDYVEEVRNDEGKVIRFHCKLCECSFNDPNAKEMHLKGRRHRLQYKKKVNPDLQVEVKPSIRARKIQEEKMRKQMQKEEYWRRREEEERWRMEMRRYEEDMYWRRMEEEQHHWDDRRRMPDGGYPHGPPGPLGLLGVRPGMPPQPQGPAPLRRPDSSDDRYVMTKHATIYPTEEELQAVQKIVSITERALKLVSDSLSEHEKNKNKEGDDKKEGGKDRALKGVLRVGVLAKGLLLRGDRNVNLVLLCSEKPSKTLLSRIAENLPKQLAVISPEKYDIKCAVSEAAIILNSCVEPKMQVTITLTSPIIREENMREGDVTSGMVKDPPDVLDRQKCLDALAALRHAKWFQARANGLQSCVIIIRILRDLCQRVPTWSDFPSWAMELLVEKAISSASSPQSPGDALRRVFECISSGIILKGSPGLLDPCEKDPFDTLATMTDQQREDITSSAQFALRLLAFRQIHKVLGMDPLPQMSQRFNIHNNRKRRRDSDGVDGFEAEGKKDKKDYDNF
UniProt Q96FK6: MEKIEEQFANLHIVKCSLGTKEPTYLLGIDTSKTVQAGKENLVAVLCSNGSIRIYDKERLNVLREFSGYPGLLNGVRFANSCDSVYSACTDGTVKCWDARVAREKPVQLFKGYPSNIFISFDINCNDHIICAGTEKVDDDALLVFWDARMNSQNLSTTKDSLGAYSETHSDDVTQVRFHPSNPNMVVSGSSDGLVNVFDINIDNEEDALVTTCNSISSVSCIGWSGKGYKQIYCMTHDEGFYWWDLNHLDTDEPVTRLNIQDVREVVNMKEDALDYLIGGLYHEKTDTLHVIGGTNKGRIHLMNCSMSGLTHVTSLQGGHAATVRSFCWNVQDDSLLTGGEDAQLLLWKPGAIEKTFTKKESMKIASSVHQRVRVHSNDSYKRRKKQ

Target	NP40-soluble protein abundance (concentration: 1mM)	NP40-soluble protein abundance (concentration: 2mM)	NP40-soluble protein abundance (concentration: 4mM)	NP40-soluble protein abundance (concentration: 6mM)	NP40-soluble protein abundance (concentration: 8mM)	NP40-soluble protein abundance (concentration: 10mM)
EXOC2 (UniProt Q96KP1)	0.975 ± 0.073	1.02 ± 0.081	1 ± 0.014	0.956 ± 0.038	0.9934 ± 0.0077	1.01 ± 0.024
OPTN (UniProt Q96CV9)	0.935 ± 0.065	0.96 ± 0.034	0.961 ± 0.038	0.958 ± 0.051	0.924 ± 0.024	0.931 ± 0.012
CCDC51 (UniProt Q96ER9)	0.998 ± 0.028	0.997 ± 0.019	0.983 ± 0.021	0.997 ± 0.013	0.9488 ± 0.0044	0.944 ± 0.029
CCDC97 (UniProt Q96F63)	0.958 ± 0.057	0.949 ± 0.056	0.959 ± 0.072	0.969 ± 0.076	0.934 ± 0.028	0.91 ± 0.056
ALG14 (UniProt Q96F25)	1.15 ± 0.022	1.07 ± 0.1	1.15 ± 0.11	1.14 ± 0.025	1.2 ± 0.094	1.11 ± 0.13
PLEKHF1 (UniProt Q96S99)	0.979 ± 0.056	0.997 ± 0.05	0.962 ± 0.037	0.901 ± 0.063	0.951 ± 0.042	0.968 ± 0.019
UniProt Q96ME1-4	0.946 ± 0.062	0.999 ± 0.16	0.985 ± 0.12	0.888 ± 0.044	0.998 ± 0.093	0.995 ± 0.075
NUDCD1 (UniProt Q96RS6)	1.08 ± 0.12	1.02 ± 0.088	1.03 ± 0.097	0.968 ± 0.11	1.03 ± 0.03	0.987 ± 0.062
UniProt Q96CG8 and related entries	0.936 ± 0.11	1.08 ± 0.12	0.979 ± 0.038	0.982 ± 0.014	0.932 ± 0.048	0.974 ± 0.017
UniProt Q96PE3 and related entries	1.03 ± 0.076	1 ± 0.073	1.02 ± 0.077	0.935 ± 0.098	1.03 ± 0.053	1 ± 0.041
UniProt Q96T37-3|A0A087WWP4|Q96T37 and related entries	1.05 ± 0.034	1.101 ± 0.011	1.12 ± 0.034	1.16 ± 0.04	1.13 ± 0.046	1.205 ± 0.0098
UniProt Q96D71 and related entries	1.01 ± 0.078	1.04 ± 0.058	1.06 ± 0.046	1.07 ± 0.064	1.04 ± 0.061	1.07 ± 0.044
UniProt Q96JJ7	0.966 ± 0.015	0.981 ± 0.011	0.999 ± 0.028	0.924 ± 0.083	0.976 ± 0.017	0.981 ± 0.026
UniProt Q96RQ3 and related entries	1.03 ± 0.037	1.02 ± 0.018	1.01 ± 0.023	0.987 ± 0.076	1.01 ± 0.022	1.01 ± 0.032
ZBTB10 (UniProt Q96DT7)	0.918 ± 0.069	0.988 ± 0.026	0.959 ± 0.098	0.967 ± 0.055	0.918 ± 0.025	0.914 ± 0.031
EFHD2 (UniProt Q96C19)	0.931 ± 0.052	0.914 ± 0.018	0.911 ± 0.029	0.9471 ± 0.0072	0.897 ± 0.021	0.889 ± 0.023
UniProt Q96IZ7 and related entries	1.5 ± 0.15	1.5 ± 0.22	1.47 ± 0.19	1.67 ± 0.22	1.56 ± 0.17	1.69 ± 0.24

A second format for part of the listing above:
Target,NP40-soluble protein abundance (concentration: 1mM),NP40-soluble protein abundance (concentration: 2mM),NP40-soluble protein abundance (concentration: 4mM),NP40-soluble protein abundance (concentration: 6mM),NP40-soluble protein abundance (concentration: 8mM),NP40-soluble protein abundance (concentration: 10mM)
ALG14 (UniProt Q96F25),1.15 ± 0.022,1.07 ± 0.1,1.15 ± 0.11,1.14 ± 0.025,1.2 ± 0.094,1.11 ± 0.13
PLEKHF1 (UniProt Q96S99),0.979 ± 0.056,0.997 ± 0.05,0.962 ± 0.037,0.901 ± 0.063,0.951 ± 0.042,0.968 ± 0.019
UniProt Q96ME1-4,0.946 ± 0.062,0.999 ± 0.16,0.985 ± 0.12,0.888 ± 0.044,0.998 ± 0.093,0.995 ± 0.075
NUDCD1 (UniProt Q96RS6),1.08 ± 0.12,1.02 ± 0.088,1.03 ± 0.097,0.968 ± 0.11,1.03 ± 0.03,0.987 ± 0.062
UniProt Q96CG8 and related entries,0.936 ± 0.11,1.08 ± 0.12,0.979 ± 0.038,0.982 ± 0.014,0.932 ± 0.048,0.974 ± 0.017
UniProt Q96PE3 and related entries,1.03 ± 0.076,1 ± 0.073,1.02 ± 0.077,0.935 ± 0.098,1.03 ± 0.053,1 ± 0.041
UniProt Q96T37-3|A0A087WWP4|Q96T37 and related entries,1.05 ± 0.034,1.101 ± 0.011,1.12 ± 0.034,1.16 ± 0.04,1.13 ± 0.046,1.205 ± 0.0098

Later entries:

Target	NP40-soluble protein abundance (concentration: 1mM)	NP40-soluble protein abundance (concentration: 2mM)	NP40-soluble protein abundance (concentration: 4mM)	NP40-soluble protein abundance (concentration: 6mM)	NP40-soluble protein abundance (concentration: 8mM)	NP40-soluble protein abundance (concentration: 10mM)
UniProt Q96EK5	0.957 ± 0.048	0.959 ± 0.031	0.952 ± 0.04	0.908 ± 0.088	0.949 ± 0.032	0.961 ± 0.044
MRPL53 (UniProt Q96EL3)	0.958 ± 0.09	0.89 ± 0.093	0.855 ± 0.11	0.86 ± 0.24	0.874 ± 0.14	0.788 ± 0.11
CRAMP1 (UniProt Q96RY5)	0.93 ± 0.01	0.88 ± 0.042	0.996 ± 0.11	0.948 ± 0.14	0.966 ± 0.13	0.99 ± 0.095
UniProt Q96HR8 and related entries	1.2 ± 0.19	1.11 ± 0.087	1.11 ± 0.071	1.18 ± 0.085	1.1 ± 0.036	1.13 ± 0.08
NARS2 (UniProt Q96I59)	1.01 ± 0.12	0.998 ± 0.1	1.01 ± 0.11	0.929 ± 0.15	1.01 ± 0.068	0.994 ± 0.057
UniProt Q96K17	0.997 ± 0.12	1.03 ± 0.088	1.01 ± 0.087	1.07 ± 0.11	1.04 ± 0.028	0.979 ± 0.12
SFXN2 (UniProt Q96NB2)	0.974 ± 0.014	0.98 ± 0.035	0.98 ± 0.042	0.942 ± 0.087	1.02 ± 0.042	1.07 ± 0.19
METTL2A (UniProt Q96IZ6)	0.992 ± 0.19	0.916 ± 0.083	0.914 ± 0.099	0.947 ± 0.12	0.924 ± 0.17	0.921 ± 0.069
VPS35 (UniProt Q96QK1)	0.971 ± 0.071	0.968 ± 0.073	0.95 ± 0.018	0.889 ± 0.084	0.941 ± 0.036	0.958 ± 0.035
UniProt Q96IQ9-2|Q96IQ9	0.9572 ± 0.0015	1.02 ± 0.013	0.973 ± 0.058	0.977 ± 0.054	0.951 ± 0.017	0.958 ± 0.036
IFT140 (UniProt Q96RY7)	1.01 ± 0.054	1.01 ± 0.11	1 ± 0.14	0.976 ± 0.15	0.991 ± 0.12	1.01 ± 0.14
UniProt Q96CS2	0.997 ± 0.11	0.939 ± 0.044	1 ± 0.087	0.987 ± 0.22	1.06 ± 0.081	0.863 ± 0.077
UniProt Q96RU2-2	1.03 ± 0.071	0.939 ± 0.029	0.951 ± 0.053	0.999 ± 0.052	1 ± 0.069	0.985 ± 0.025
ZFR (UniProt Q96KR1)	1.03 ± 0.04	1.02 ± 0.05	1.03 ± 0.052	1.09 ± 0.11	1.11 ± 0.071	1.14 ± 0.096
UniProt Q96BW9-2|Q96BW9-3|Q96BW9	1.12 ± 0.084	1.14 ± 0.075	1.11 ± 0.03	1.05 ± 0.1	1.11 ± 0.033	1.12 ± 0.012
FAM136A (UniProt Q96C01)	0.932 ± 0.12	0.955 ± 0.075	0.943 ± 0.037	0.983 ± 0.093	0.922 ± 0.011	0.856 ± 0.11
WDR89 (UniProt Q96FK6)	1.17 ± 0.047	1.17 ± 0.035	1.21 ± 0.06	1.27 ± 0.093	1.29 ± 0.14	1.33 ± 0.11
